PubChem BioAssay AID493246 | Drosophila RNAi Screening Center – 2011
The screen tested about 21,000 reagents; shown is an unselected part of those with a known target gene and a result. In the full data, 429 (2%) are marked active. 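Values are raw and not normalised between plates; calls rest on per-plate z-scores that were not deposited.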 Names joined by + are all predicted targets of the reagent. The record does not give: the amount of reagent, the time to read-out.

Aim: 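Genes fly cells need to grow and stay alive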 (primary screen)
System: Drosophila Kc and S2R+ cells
Knock-down reagent: long dsRNA against Drosophila genes
Read-out: 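Raw, unnormalised count of remaining cells in each well; per-plate z-scores of cell number underlie the calls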
Reading the numbers: Kc cell number and S2R+ cell number: higher = more cells remaining
Active means: 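Active when the per-plate z-score of cell number is 3 or more in the direction of fewer cells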

gene | DRSC id | Kc cell number, rep 1 | Kc cell number, rep 2 | S2R+ cell number, rep 1 | S2R+ cell number, rep 2 | outcome
mas (masquerade) | DRSC08720 | 1.36e6 | 1.45e6 | 1.24e6 | 1.20e6 | inactive
CG3184 | DRSC18289 | 5.37e5 | – | 8.67e5 | – | inactive
cpo (couch potato) | DRSC13265 | 1.66e6 | 1.85e6 | 1.08e6 | 1.19e6 | inactive
Alg13 (Alg13 UDP-N-acetylglucosaminyltransferase subunit) | DRSC14864 | 1.73e6 | 1.71e6 | 1.09e6 | 1.24e6 | inactive
retinin | DRSC09940 | 1.41e6 | 1.47e6 | 1.20e6 | 1.31e6 | inactive
CG3191 | DRSC18530 | 5.20e5 | – | 8.98e5 | – | inactive
da | DRSC03517 | 1.91e6 | 1.97e6 | 1.25e6 | 1.42e6 | inactive
Gpat4 (Glycerol-3-phosphate acyltransferase 4) | DRSC04345 | 1.38e6 | 1.48e6 | 1.15e6 | 1.19e6 | inactive
fs(1)K10 (female sterile (1) K10) | DRSC18775 | 4.76e5 | – | 7.49e5 | – | inactive
dmpd (dampened) | DRSC06092 | 1.43e6 | 1.43e6 | 1.12e6 | 1.21e6 | inactive
smash (smallish) | DRSC12139 | 1.56e6 | 1.53e6 | 1.41e6 | 1.51e6 | inactive
smash (smallish) | DRSC12239 | 1.49e6 | 2.00e6 | 1.24e6 | 1.33e6 | inactive
Bet1 (Blocked early in transport 1) | DRSC10088 | 1.82e6 | 1.91e6 | 1.11e6 | 1.20e6 | inactive
lncRNA:CR42862 + CG33229 | DRSC08497 | 1.53e6 | 1.67e6 | 1.15e6 | 1.22e6 | inactive
CG9338 | DRSC03213 | 1.50e6 | 1.54e6 | 1.05e6 | 1.17e6 | inactive
Nufip | DRSC10397 | 1.78e6 | 1.86e6 | 1.24e6 | 1.29e6 | inactive
PAN3 (Poly(A) specific ribonuclease subunit PAN3) | DRSC08190 | 1.22e6 | 1.40e6 | 1.14e6 | 1.05e6 | inactive
Inx5 (Innexin 5) | DRSC20051 | 1.53e6 | 1.61e6 | 1.09e6 | 1.23e6 | inactive
PIP82 | DRSC18694 | 1.74e6 | 1.77e6 | 1.14e6 | 1.29e6 | inactive
pyd3 | DRSC15459 | 1.53e6 | 1.74e6 | 1.10e6 | 1.25e6 | inactive
usp (ultraspiracle) | DRSC18847 | 1.67e6 | 1.70e6 | 1.14e6 | 1.25e6 | inactive
Pex5 (Peroxin 5) | DRSC18552 | 1.64e6 | 1.74e6 | 1.02e6 | 1.18e6 | inactive
CG17666 | DRSC10276 | 1.29e6 | 1.43e6 | 1.21e6 | 1.36e6 | inactive
Prosbeta4 (Proteasome beta4 subunit) | DRSC02603 | 9.53e5 | 1.05e6 | 7.31e5 | 8.19e5 | active

Single entries from the entries so far.
Entry of PAN3 (Poly(A) specific ribonuclease subunit PAN3) [DRSC08190] under “Kc cell number, rep 2”: 1.40e6
pyd3 [DRSC15459], outcome = inactive
